Laboratory results: publication PMC10985070
No constants are given. Whether binding was seen depends on the method and setting. In cells and extracts the contact can be indirect. Some entries that bind do so weakly or less than the wild type.

Chains of the proteins cited; added tags and fusions are not shown.
UniProt Q02248: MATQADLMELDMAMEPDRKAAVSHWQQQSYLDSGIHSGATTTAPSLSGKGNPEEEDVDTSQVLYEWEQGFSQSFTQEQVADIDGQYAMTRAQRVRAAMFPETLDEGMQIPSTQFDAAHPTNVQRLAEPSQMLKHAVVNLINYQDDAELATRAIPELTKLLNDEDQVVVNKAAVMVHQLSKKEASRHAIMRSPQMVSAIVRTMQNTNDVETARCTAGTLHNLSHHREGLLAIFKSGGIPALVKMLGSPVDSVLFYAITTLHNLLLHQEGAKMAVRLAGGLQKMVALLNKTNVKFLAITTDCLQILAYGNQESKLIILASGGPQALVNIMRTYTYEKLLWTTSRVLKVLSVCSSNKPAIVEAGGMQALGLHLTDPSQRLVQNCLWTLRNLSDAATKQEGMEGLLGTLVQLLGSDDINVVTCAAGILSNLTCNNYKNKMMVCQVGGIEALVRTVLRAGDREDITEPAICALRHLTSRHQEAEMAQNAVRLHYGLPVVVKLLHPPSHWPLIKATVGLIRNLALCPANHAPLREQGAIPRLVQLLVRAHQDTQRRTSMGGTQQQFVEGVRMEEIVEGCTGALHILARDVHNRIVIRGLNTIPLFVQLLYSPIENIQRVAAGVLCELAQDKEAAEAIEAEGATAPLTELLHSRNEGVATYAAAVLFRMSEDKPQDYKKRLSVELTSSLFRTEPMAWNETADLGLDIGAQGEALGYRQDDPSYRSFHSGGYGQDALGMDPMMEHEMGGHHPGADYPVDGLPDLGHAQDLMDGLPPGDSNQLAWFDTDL
UniProt Q00417: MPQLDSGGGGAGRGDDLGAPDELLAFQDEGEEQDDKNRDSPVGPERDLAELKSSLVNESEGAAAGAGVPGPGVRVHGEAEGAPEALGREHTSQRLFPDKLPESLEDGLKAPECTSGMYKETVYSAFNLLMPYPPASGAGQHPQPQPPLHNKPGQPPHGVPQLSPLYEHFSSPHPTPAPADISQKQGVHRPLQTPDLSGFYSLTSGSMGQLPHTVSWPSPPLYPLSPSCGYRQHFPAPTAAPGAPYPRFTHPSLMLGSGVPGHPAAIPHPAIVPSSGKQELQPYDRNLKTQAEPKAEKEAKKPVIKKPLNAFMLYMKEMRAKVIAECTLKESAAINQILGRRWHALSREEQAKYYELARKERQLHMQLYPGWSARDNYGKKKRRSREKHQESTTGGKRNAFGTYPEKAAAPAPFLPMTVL

Molecular target: β-catenin (mouse (endogenous in intestinal ILC3s)) (UniProt Q02248)
Assay: co-IP; lysate of mouse ILC3s treated with DMSO or CHIR-99021 for 24 hours; IP with anti-β-catenin antibody or IgG1 isotype control on protein A + G magnetic beads; immunoblot of TCF-1

Substance: TCF-1 (from UniProt Q00417 1-419)
- binding: binds
